These results are taken from PMC9564337 (Cancers, 2022).

Strings that start with PEPTIDE1 are HELM notation: dots part the residues, brackets hold end groups and non-standard residues.

A short description of data set [1]: general procedure: Fmoc solid-phase peptide synthesis; 2-ClTrt-Cl resin; HBTU/HOBt/DIPEA; oxyma/DIC for 11. The note with it: whole synthesis, scale 0.064 mmol, hydrotrifluoroacetate (TFA salt).
Data set [2] is described as follows: general procedure: Fmoc solid-phase peptide synthesis; H-Leu-2-ClTrt resin (loading 0.79 mmol/g); 2-ClTrt-Cl resin for 46 and 47; HBTU/HOBt/DIPEA; oxyma/DIC for 11. The note with it: whole synthesis, 220 nm, hydrotrifluoroacetate (TFA salt).
Data set [3] is described as follows: general procedure: Fmoc solid-phase peptide synthesis; H-Leu-2-ClTrt resin; HBTU/HOBt/DIPEA; oxyma/DIC for 11. The note with it: whole synthesis, hydrotrifluoroacetate (TFA salt).

“PEPTIDE1{[NMeArg].R.P.Y.I.[aMeLeu]}$$$$V2.0”: in data set [1], the isolated mass is 11.7 mg and the isolated yield is reported as 15%. Also, the “final HPLC purity” value in data set [2] was over 99%.

Turning to “PEPTIDE1{[NMeArg].R.P.Y.I.[cPrAla]}$$$$V2.0”, the “final HPLC purity” value in data set [1] (220 nm) was determined as 99%.

For “PEPTIDE1{[NMeArg].[Arg(carb-C4N)].P.Y.[Tle].L}$$$$V2.0”, in data set [3] (scale 0.086 mmol), the isolated mass amounted to 68.7 mg and the isolated yield turned out to be 57%. In addition, in data set [2], the “final HPLC purity” value was over 99%.

As to “Nα-Methyl-Nω-[(4-aminobutyl)aminocarbonyl]Arg-Arg-Pro-β,β-dimethyl-Tyr-Ile-Leu tetrakis(hydrotrifluoroacetate)”, the isolated yield in data set [3] is reported as 25%. Besides, in data set [2], the “final HPLC purity” value stood at 97%.

For the substance “PEPTIDE1{[NMeArg].R.P.Y.[aMeLeu].L}$$$$V2.0”, in data set [3] (scale 0.0316 mmol), the isolated mass is listed as 26.3 mg and the isolated yield amounted to 70%. In data set [2], the “final HPLC purity” value stood at 99%.

As for “PEPTIDE1{[NMeArg].R.P.[D-bbMe2Tyr].I.L}$$$$V2.0”, in data set [3] (scale 0.0316 mmol), the isolated mass came to 11.8 mg and the isolated yield turned out to be 31%. Moreover, in data set [2], the “final HPLC purity” value worked out at 99%.

For “PEPTIDE1{[NMeArg].R.P.Y.[S-Iva].L}$$$$V2.0”, in data set [3] (scale 0.0316 mmol), the isolated mass turned out to be 26.3 mg and the isolated yield amounted to 72%. The “final HPLC purity” value in data set [2] is on record as 98%.

As for “PEPTIDE1{[NMeArg].[Arg(carb-C4N)].P.Y.I.L}$$$$V2.0”, in data set [3] (scale 0.095 mmol), the isolated mass came to 58.8 mg and the isolated yield stood at 44%. Moreover, the “final HPLC purity” value in data set [2] is reported as over 99%.
